Data as given in patent US11433099B2, “Immunotherapy with B*08 restricted peptides and combination of peptides against cancers and related methods” (Immatics Biotechnologies GmbH, priority 2018, dated 2022).

Key:
[1] = system: source genes (mRNA) in tumor and normal tissue samples; experiment: Expression profiling (RNASeq) of genes encoding the peptides; parameters: species or system human; conditions: RNASeq, tumors vs panel of normal tissues, value = tumor entities in this class
[2] = system: HLA peptide pools from tumor and normal tissue samples; experiment: Identification and relative LC-MS quantitation of HLA-presented tumor associated peptides (presentation profiles); parameters: species or system human; conditions: for Peptide Presentation on cancer entities: cancer entities on which the peptide was found presented (Table 8A), value = entity abbreviations; for over-presentation in HLA-B*08 cancer tissues compared to a panel of HLA-B*08 normal samples: FIGS. 1A to 1L, N=38 normal samples, N=91 tumor samples; for over-presentation in HLA-A*02 cancer tissues compared to a panel of HLA-A*02 normal samples: FIGS. 1M and 1O, N=592 normal samples, N=711 tumor samples

Substance	Peptide Presentation on cancer entities [2]	Gene Expression in tumor samples: Highly over-expressed (++) [1]	Gene Expression in tumor samples: over-expressed (+) [1]	also measured
5: peptide found in OR51E2 (gene looked up) (STMPKILAL; listed as Homo sapiens) [compound 5]	PRCA	–	–	Gene Expression in tumor samples: very highly over-expressed (+++) [1]: PRCA
9: peptide found in PGR (gene looked up) (LLKGKPRAL; listed as Homo sapiens) [compound 9]	UEC	UEC	BRCA	–
11: peptide found in CCL17 (gene looked up) (MAPLKMLAL; listed as Homo sapiens) [compound 11]	CCC, HNSCC, NHL, NSCLCadeno, NSCLCother, NSCLCsquam, OSCAR, PACA, SCLC, UEC	NHL	–	–
15: peptide found in MYCN (gene looked up) (LLKKIEHA; listed as Homo sapiens) [compound 15]	CCC, GBM	AML, UEC	GBM, MEL, OC, SCLC, UBC	–
17: peptide found in OR51E1 (gene looked up) (LLILKTVL; listed as Homo sapiens) [compound 17]	BRCA	PRCA	RCC	–
20: peptide found in PTPRZ1 (gene looked up) (ILKRFLAC; listed as Homo sapiens) [compound 20]	GBM	GBM	–	–
21: peptide found in PTPRZ1 (gene looked up) (RILKRFLAC; listed as Homo sapiens) [compound 21]	GBM, HNSCC, MEL	GBM	–	–
22: peptide found in LOXL4 (gene looked up) (EVRLKPIL; listed as Homo sapiens) [compound 22]	CCC, MEL	MEL	CCC	–
28: peptide found in LOXL4 (gene looked up) (DPKSRLKSL; listed as Homo sapiens) [compound 28]	MEL	MEL	–	–
40: peptide found in APOB (gene looked up) (ESMLKTTL; listed as Homo sapiens) [compound 40]	CCC, HCC	HCC	–	–
47: peptide found in PTPRZ1 (gene looked up) (HSRVKLAQL; listed as Homo sapiens) [compound 47]	GBM	GBM	–	–
54: peptide found in HAVCR1 (gene looked up) (DLSRRDVSL; listed as Homo sapiens) [compound 54]	CCC, PACA, RCC	–	RCC	–
55: peptide found in CXCR3 (gene looked up) (VLLSRRTAL; listed as Homo sapiens) [compound 55]	CLL, MEL, NSCLCadeno, UBC, UEC	–	CLL	–
63: peptide found in LPAR3 (gene looked up) (YVKRKTNVL; listed as Homo sapiens) [compound 63]	HNSCC	–	HNSCC, OC, OSCAR, PRCA	–
66: peptide found in MET (gene looked up) (DLKKTRVL; listed as Homo sapiens) [compound 66]	HNSCC, NSCLCadeno, NSCLCsquam, PACA	–	CCC, GBC, RCC	–
79: peptide found in CDK6 (gene looked up) (GLARIYSF; listed as Homo sapiens) [compound 79]	CCC	–	AML	–
90: peptide found in KLK4 (gene looked up) (TIGLGLHSL; listed as Homo sapiens) [compound 90]	UBC	–	–	Gene Expression in tumor samples: very highly over-expressed (+++) [1]: PRCA
93: peptide found in MMP12 (gene looked up) (LMKEKIQEM; listed as Homo sapiens) [compound 93]	NSCLCother	CCC, GBC, GC, MEL, NHL, NSCLCadeno, OC, OSCAR, PACA, UBC, UEC	HCC, RCC	Gene Expression in tumor samples: very highly over-expressed (+++) [1]: CRC. HNSCC, NSCLCother, NSCLCsquam, SCLC
98: peptide found in CHRNA9 (gene looked up) (EPVNTNVVL; listed as Homo sapiens) [compound 98]	NSCLCother	GBM, SCLC	HNSCC	Gene Expression in tumor samples: very highly over-expressed (+++) [1]: NSCLCother
102: peptide found in IGF2BP3 (gene looked up) (IMKKIRESY; listed as Homo sapiens) [compound 102]	MEL, NSCLCadeno, NSCLCsquam	–	AML, NSCLCother, UEC	–
105: peptide found in CCL17 (gene looked up) (APLKMLALV; listed as Homo sapiens) [compound 105]	BRCA, CCC, CRC, GBM, HNSCC, MEL, NHL, NSCLCadeno, NSCLCsquam, OSCAR, RCC	NHL	–	–
108: peptide found in MMP13 (gene looked up) (RSYYHPTNL; listed as Homo sapiens) [compound 108]	HNSCC, NSCLCsquam	HNSCC, NSCLCsquam, OSCAR	NSCLCadeno, UBC	–

Substance	Peptide Presentation on cancer entities [2]	Gene Expression in tumor samples: Highly over-expressed (++) [1]	Gene Expression in tumor samples: over-expressed (+) [1]	also measured
115: peptide found in PTPRZ1 (gene looked up) (MRILKRFLAC; listed as Homo sapiens) [compound 115]	MEL	GBM	–	–
125: peptide found in PTPRZ1 (gene looked up) (FPLVTPLL; listed as Homo sapiens) [compound 125]	GBM	GBM	–	–
132: peptide found in GFAP (gene looked up) (IPIQAHQI; listed as Homo sapiens) [compound 132]	GBM	GBM	–	–
134: peptide found in APOB (gene looked up) (DQRSRATL; listed as Homo sapiens) [compound 134]	HCC	HCC	–	–
137: peptide found in ROS1 (gene looked up) (VQWKPPAL; listed as Homo sapiens) [compound 137]	NSCLCadeno	NSCLCadeno, NSCLCother	NSCLCsquam	–
180: peptide found in SLC7A11 (gene looked up) (LAVPIFVAL; listed as Homo sapiens) [compound 180]	–	–	GBM, HNSCC, NSCLCadeno, NSCLCsquam, OSCAR	–
DIKKTNESL (listed as Homo sapiens) [SEQ ID NO: 23]	–	–	–	over-presentation in HLA-B*08 cancer tissues compared to a panel of HLA-B*08 normal samples [2]: over-presentation
DLQKKAQAL (listed as Homo sapiens) [SEQ ID NO: 30]	–	–	–	over-presentation in HLA-B*08 cancer tissues compared to a panel of HLA-B*08 normal samples [2]: over-presentation
DLRKLKRQL (listed as Homo sapiens) [SEQ ID NO: 53]	–	–	–	over-presentation in HLA-B*08 cancer tissues compared to a panel of HLA-B*08 normal samples [2]: over-presentation
DLRNKIIAA (listed as Homo sapiens) [SEQ ID NO: 46]	–	–	–	over-presentation in HLA-B*08 cancer tissues compared to a panel of HLA-B*08 normal samples [2]: over-presentation
DLVLKRCL (listed as Homo sapiens) [SEQ ID NO: 24]	–	–	–	over-presentation in HLA-B*08 cancer tissues compared to a panel of HLA-B*08 normal samples [2]: over-presentation
EEFLTPKKL (listed as Homo sapiens) [SEQ ID NO: 290]	–	–	–	over-presentation in HLA-B*44 cancer tissues compared to a panel of HLA-B*44 normal samples ([2]; FIG. 1N, N=204 normal samples, N=206 tumor samples): over-presentation
ELFLHPVL (listed as Homo sapiens) [SEQ ID NO: 29]	–	–	–	over-presentation in HLA-B*08 cancer tissues compared to a panel of HLA-B*08 normal samples [2]: over-presentation
EPFTRPVL (listed as Homo sapiens) [SEQ ID NO: 13]	–	–	–	over-presentation in HLA-B*08 cancer tissues compared to a panel of HLA-B*08 normal samples [2]: over-presentation
EVYLRMYQL (listed as Homo sapiens) [SEQ ID NO: 80]	–	–	–	over-presentation in HLA-B*08 cancer tissues compared to a panel of HLA-B*08 normal samples [2]: over-presentation
MAPLKMLAL (listed as Homo sapiens) [SEQ ID NO: 11]	–	–	–	over-presentation in HLA-B*08 cancer tissues compared to a panel of HLA-B*08 normal samples [2]: over-presentation
QVMPKTGL (listed as Homo sapiens) [SEQ ID NO: 4]	–	–	–	presentation on various cancer entities ([2]; running text (Table 8A examples; LC-MS identification on tumor samples)): hepatocellular carcinoma, melanoma and esophagus cancer
RILKRFLAC (listed as Homo sapiens) [SEQ ID NO: 21]	–	–	–	over-presentation in HLA-B*08 cancer tissues compared to a panel of HLA-B*08 normal samples [2]: over-presentation
RPKGTPPL (listed as Homo sapiens) [SEQ ID NO: 70]	–	–	–	over-presentation in HLA-B*08 cancer tissues compared to a panel of HLA-B*08 normal samples [2]: over-presentation
SLAESEASL (listed as Homo sapiens) [SEQ ID NO: 289]	–	–	–	over-presentation in HLA-A*02 cancer tissues compared to a panel of HLA-A*02 normal samples [2]: over-presentation
VPYTKVQL (listed as Homo sapiens) [SEQ ID NO: 89]	–	–	–	over-presentation in HLA-B*08 cancer tissues compared to a panel of HLA-B*08 normal samples [2]: over-presentation
YVYANHFTEA (listed as Homo sapiens) [SEQ ID NO: 291]	–	–	–	over-presentation in HLA-A*02 cancer tissues compared to a panel of HLA-A*02 normal samples [2]: over-presentation

For part of these data: Expression grades refer to the transcript from which the peptide derives; gene names, where given, were looked up from the sequence.
